This experiment deals with TurboID-BRD4-ET (UniProt O60885 600-678). As to the kind of experiment: proximity labelling.

Sequences of proteins named here, by UniProt entry; tags and fusion partners are left off.
UniProt O14646: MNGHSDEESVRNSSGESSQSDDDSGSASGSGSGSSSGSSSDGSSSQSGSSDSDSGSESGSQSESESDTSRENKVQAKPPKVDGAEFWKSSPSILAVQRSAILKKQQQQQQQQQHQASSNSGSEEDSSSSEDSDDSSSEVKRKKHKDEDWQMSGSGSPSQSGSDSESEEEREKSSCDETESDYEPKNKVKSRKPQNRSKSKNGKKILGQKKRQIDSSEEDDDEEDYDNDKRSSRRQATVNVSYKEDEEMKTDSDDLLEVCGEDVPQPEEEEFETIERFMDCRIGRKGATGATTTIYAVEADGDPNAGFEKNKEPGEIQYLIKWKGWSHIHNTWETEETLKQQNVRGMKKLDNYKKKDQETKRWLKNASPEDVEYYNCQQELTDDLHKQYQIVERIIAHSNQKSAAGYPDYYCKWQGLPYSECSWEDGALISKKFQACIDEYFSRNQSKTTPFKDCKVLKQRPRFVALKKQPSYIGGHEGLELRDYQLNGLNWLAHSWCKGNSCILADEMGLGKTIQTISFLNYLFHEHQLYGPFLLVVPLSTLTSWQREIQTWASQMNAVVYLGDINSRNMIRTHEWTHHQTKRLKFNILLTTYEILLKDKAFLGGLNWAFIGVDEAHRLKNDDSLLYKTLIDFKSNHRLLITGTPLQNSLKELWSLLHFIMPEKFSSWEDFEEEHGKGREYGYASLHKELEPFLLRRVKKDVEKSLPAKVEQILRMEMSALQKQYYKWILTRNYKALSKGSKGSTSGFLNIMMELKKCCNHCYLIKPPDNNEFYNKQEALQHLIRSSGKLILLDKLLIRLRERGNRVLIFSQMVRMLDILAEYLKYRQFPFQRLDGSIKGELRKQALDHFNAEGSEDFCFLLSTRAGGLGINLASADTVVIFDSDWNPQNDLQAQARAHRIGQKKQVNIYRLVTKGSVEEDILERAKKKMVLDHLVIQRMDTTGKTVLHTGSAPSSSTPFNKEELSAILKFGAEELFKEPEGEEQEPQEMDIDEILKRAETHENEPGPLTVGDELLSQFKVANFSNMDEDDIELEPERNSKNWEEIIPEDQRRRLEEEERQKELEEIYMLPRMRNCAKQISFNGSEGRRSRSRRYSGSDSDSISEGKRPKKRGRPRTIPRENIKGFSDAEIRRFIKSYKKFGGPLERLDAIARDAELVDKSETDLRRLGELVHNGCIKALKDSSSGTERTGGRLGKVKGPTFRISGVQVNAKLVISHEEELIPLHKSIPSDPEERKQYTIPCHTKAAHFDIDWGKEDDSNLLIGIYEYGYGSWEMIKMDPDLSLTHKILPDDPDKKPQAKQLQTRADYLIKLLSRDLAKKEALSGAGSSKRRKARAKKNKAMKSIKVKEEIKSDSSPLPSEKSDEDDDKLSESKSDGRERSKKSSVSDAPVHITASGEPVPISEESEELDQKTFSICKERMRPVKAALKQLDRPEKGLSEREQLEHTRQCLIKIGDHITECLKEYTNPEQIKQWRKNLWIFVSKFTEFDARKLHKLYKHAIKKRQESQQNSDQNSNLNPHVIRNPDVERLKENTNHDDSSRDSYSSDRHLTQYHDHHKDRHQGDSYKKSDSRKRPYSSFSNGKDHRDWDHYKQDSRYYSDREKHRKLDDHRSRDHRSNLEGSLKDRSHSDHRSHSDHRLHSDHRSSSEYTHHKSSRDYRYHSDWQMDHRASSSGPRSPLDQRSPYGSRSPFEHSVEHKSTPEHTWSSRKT

No constants are given. Whether binding was seen depends on the method and setting. Binding seen in cells or lysates may run through a third protein. A yes stands for co-enrichment or nearness to the bait. Other partners may have been found.

Regarding CHD1 (from UniProt O14646 1-1710), the binding result was “binds”.
